Record: PubChem BioAssay AID1259308 (NCATS, 2017)
In all, the deposit lists about 59,000 reagents; below is a random part of them. In the full data, about 1,510 (2.6%) got an active call. 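Calls use total luciferase alone and ignore viability, so some active siRNAs may act by altering cell number.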 Reagents against one gene are numbered here. Not all columns of the deposit are shown.

Purpose: 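Candidate targets for better recombinant protein yield in mammalian cells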 (primary screen)
Cell system: human HEK293 embryonic kidney cells stably expressing firefly luciferase (HEK-CMV-Luc2-Hygro)
Knock-down reagent: single siRNA against human genes, 0.8 pmol siRNA per well
Timing: 72 h
Measured: 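Luciferase light (ONE-Glo) measured on one replicate plate set and viability (CellTiter-Glo) on the other, scaled to a negative control siRNA, with robust z-scores and luciferase per cell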
Scale: total luciferase, z-score and total luciferase, % of control: higher = more reporter protein produced
Hit rule: 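An siRNA counts as active if its total luciferase robust z-score exceeds 3; genes with two or more such siRNAs out of three were retested with fresh siRNAs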
Meaning of the calls: active = raised luciferase; inactive = no rise

Against VIPR2 (vasoactive intestinal peptide receptor 2) #1, the entry reads total luciferase, z-score 0.804; total luciferase, % of control 97.9; inactive.
With knock-down of VIPR2 (vasoactive intestinal peptide receptor 2) #2, the screen gave total luciferase, z-score 0.509; total luciferase, % of control 92; inactive.
Against VIPR2 (vasoactive intestinal peptide receptor 2) #3, the entry reads total luciferase, z-score 2.08; total luciferase, % of control 123; inactive.
PNKD (PNKD metallo-beta-lactamase domain containing) #1 gave total luciferase, z-score 0.232; total luciferase, % of control 86.5; inactive.
For PNKD (PNKD metallo-beta-lactamase domain containing) #2, the entry reads total luciferase, z-score 0.528; total luciferase, % of control 92.4; inactive.
With knock-down of PNKD (PNKD metallo-beta-lactamase domain containing) #3 the results were total luciferase, z-score -0.833; total luciferase, % of control 65.3; inactive.
For SMC1B (structural maintenance of chromosomes 1B) #1, the values are total luciferase, z-score -1.07; total luciferase, % of control 60.6; inactive.
SMC1B (structural maintenance of chromosomes 1B) #2 showed total luciferase, z-score -0.227; total luciferase, % of control 77.4; inactive.
SMC1B (structural maintenance of chromosomes 1B) #3 gave total luciferase, z-score 0.00184; total luciferase, % of control 81.9; inactive.
OR8U3 (olfactory receptor family 8 subfamily U member 3) #1 scored total luciferase, z-score 1.78; total luciferase, % of control 117; inactive.
Knock-down of OR8U3 (olfactory receptor family 8 subfamily U member 3) #2 resulted in: total luciferase, z-score -1.72; total luciferase, % of control 47.7; inactive.
For OR8U3 (olfactory receptor family 8 subfamily U member 3) #3, the entry reads total luciferase, z-score -0.809; total luciferase, % of control 65.8; inactive.

Single entries from the list.
For “total luciferase, z-score”, VIPR2 (vasoactive intestinal peptide receptor 2) #2 shows 0.509
Result of PNKD (PNKD metallo-beta-lactamase domain containing) #3 in “Outcome”: inactive

The results go on.
Against SCLY (selenocysteine lyase) #1, the entry reads total luciferase, z-score 1.21; total luciferase, % of control 106; inactive.
Against SCLY (selenocysteine lyase) #2, the entry reads total luciferase, z-score 0.0903; total luciferase, % of control 83.7; inactive.
For SCLY (selenocysteine lyase) #3, the values are total luciferase, z-score 0.0687; total luciferase, % of control 83.3; inactive.
Against MAGIX (MAGI family member, X-linked) #1, the entry reads total luciferase, z-score -2.12; total luciferase, % of control 39.8; inactive.
For MAGIX (MAGI family member, X-linked) #2 the deposit lists total luciferase, z-score 2.89; total luciferase, % of control 139; inactive.
Depletion of MAGIX (MAGI family member, X-linked) #3 gave: total luciferase, z-score -0.0909; total luciferase, % of control 80.1; inactive.
ACSS1 (acyl-CoA synthetase short chain family member 1) #1 gave total luciferase, z-score 0.998; total luciferase, % of control 102; inactive.
For ACSS1 (acyl-CoA synthetase short chain family member 1) #2 the deposit lists total luciferase, z-score 2; total luciferase, % of control 122; inactive.
For ACSS1 (acyl-CoA synthetase short chain family member 1) #3 the deposit lists total luciferase, z-score -1.6; total luciferase, % of control 50.1; inactive.
